Results on 1 substance are retold here after PMC9325611.

Protein sequences, listed by entry. Tags and fused reporters are not part of them.
UniProt P63085: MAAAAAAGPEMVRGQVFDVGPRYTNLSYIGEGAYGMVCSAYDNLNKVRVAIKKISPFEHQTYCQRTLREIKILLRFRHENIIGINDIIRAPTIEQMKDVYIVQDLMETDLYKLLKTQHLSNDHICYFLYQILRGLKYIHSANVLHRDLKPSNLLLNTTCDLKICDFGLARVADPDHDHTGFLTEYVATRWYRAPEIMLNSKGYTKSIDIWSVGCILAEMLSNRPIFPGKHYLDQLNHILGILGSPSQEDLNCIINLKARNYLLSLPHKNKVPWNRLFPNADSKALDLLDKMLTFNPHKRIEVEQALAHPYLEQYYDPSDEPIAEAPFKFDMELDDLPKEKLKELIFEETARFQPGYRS

The experiment has as its target T1, Biliverdin reductase A (mouse (endogenous in mouse LECs)) (UniProt Q9CY64).
T1 sequence: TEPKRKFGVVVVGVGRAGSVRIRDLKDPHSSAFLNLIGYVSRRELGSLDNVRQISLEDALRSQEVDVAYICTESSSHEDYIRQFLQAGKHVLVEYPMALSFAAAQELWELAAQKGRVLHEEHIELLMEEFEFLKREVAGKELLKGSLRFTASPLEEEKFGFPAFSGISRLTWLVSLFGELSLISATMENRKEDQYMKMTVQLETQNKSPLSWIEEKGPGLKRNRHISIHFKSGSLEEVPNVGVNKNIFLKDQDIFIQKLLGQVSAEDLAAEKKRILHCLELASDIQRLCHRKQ
In words: co-IP; lysates of young and senescent mouse LECs, with or without 200 uM H2O2 for 4 h; antibodies against BVRA, ERK2 or normal mouse IgG at 4°C overnight, protein A/G Plus-Agarose beads 2 h at 4°C, western blot.

These are yes or no findings as the source states them, for the method shown. In cells and extracts the contact can be indirect. Some entries that bind do so weakly or less than the wild type.

With ERK2 (from UniProt P63085 1-358), the binding result was “binds”.
